Test results from the supplement of paper PMC10338343.
± gives the standard deviation. This is a selection; strong and weak results do not stand in their true shares. Many entries were measured with a wide error.

Test system: EfPiwi piRISC loaded with piRNA #1 (26 nt)
Assay: pre-steady-state target cleavage rate (min^-1); guide: piRNA #1 5'p-UGAGGUAGUAGGUUGUAUAGUAUCCA; MIWI and MILI are mouse PIWI proteins and EfPiwi is from a freshwater sponge; tags in brackets are library labels; higher = faster piRNA-guided slicing of the target
Conditions: auxiliary factor: 500 nM Ephydatia muelleri Gtsf1
Procedure: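 Cleave-'n-Seq: a library of target RNAs (target site in constant flanks) at […] was incubated with 1 nM active freshwater sponge Ephydatia fluviatilis Piwi piRISC (synthetic 5'-monophosphorylated piRNA guide) with or without 500 nM EmGtsf1 at 33 °C for 1 min to 16 h. Uncleaved targets were sequenced and the pooled three trials fitted to a burst-and-steady-state model to give the pre-steady-state cleavage rate (min^-1). Sequence is the target site only. Fits with R² ≤ 0 are excluded.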

| Sequence | pre-steady-state target cleavage rate |
| --- | --- |
| GGAGACCUAUGAUAUGUUGCUACAUGCUCA | 0.000928 ± 0.0093 |
| GGAGUGGAUACUAUACAACCACUACCUCA | 0.00771 ± 0.0031 |
| GGAGAGGAUCACUAUACAACCUACUACCUCA | 0.00867 ± 0.0051 |
| GGAGACCUAUGUAUACAUGGAUGAUGGAGA [g14:g19:cont:t1A] | 0.000213 ± 0.017 |
| GGAGACCAUACUAUACAGCCUACUACCUCA | 0.16 ± 0.053 |
| GGAGACCUAUCUAUACAACCAACUACCUGA | 0.00269 ± 0.0037 |
| GGAGAGGAUACUCUACAACCUACUACCUCA | 0.00431 ± 0.0033 |
| GGAGUGGAUUCUAUACAACCUACUACCUGA | 0.00261 ± 0.002 |
| GGAGACCUUACUAUACAACCUACUACCUCU [g2:g22:cont:t1U] | 1.04 ± 0.39 |
| GGAGACCUAUGAUUACUACCUACUACGUCA | 0.00105 ± 0.0065 |
| GGAGUGGAUACUACUACAACCUACUACCUCA | 0.114 ± 0.038 |
| GGAGACGAUACAUAACAACCUACUACCUCA | 0.0034 ± 0.0038 |
| GGAGACCUAUGAAAACAACCUACUACCUGA | 0.00104 ± 0.0058 |
| GGAGACCUAUCUAUACAACCUGACUACCUCA | 0.00169 ± 0.0054 |
| GGAGACCUAACUAUACAAUCCUACUACCUCA | 0.00138 ± 0.0055 |
| GGAGACCUAUGAUAUGUUGCCUACUACCUCA | 0.0011 ± 0.0059 |
| GGAGACCUAUGUUUACAACCUACAACCUCA | 0.000462 ± 0.0047 |
| GGAGACCUUACUACACAACCUACUACCUCA | 0.00432 ± 0.0039 |
| GGAGACCUAUGAUUACAACCUACUUCCACA | 0.000217 ± 0.014 |
| GGAGACCUAUGAUAUGUACCUACUACGCUCA | < 0.0001 |

Reformatted as tab-separated lines: part of the list above
Sequence	pre-steady-state target cleavage rate
GGAGACCUAUCUAUACAACCUGACUACCUCA	0.00169 ± 0.0054
GGAGACCUAUGUUUACAACCUACAACCUCA	0.000462 ± 0.0047

Next results.

| Sequence | pre-steady-state target cleavage rate |
| --- | --- |
| GGAGACCAUAGUAUACAACGUACUACCUCA | 0.00187 ± 0.0033 |
| GGAGACCUAACUAUACAACCUACAACCUCA | 0.00286 ± 0.0033 |
| GGAGAGGAUACUAUACAACCAUACUACCUCA | 0.00323 ± 0.0026 |
| GGAGACCUAUCUAUUGAACCUACUACCUCA | 0.000822 ± 0.0077 |
| GGAGACGUAUACUAUACAACCUACUACCUCA | 0.0356 ± 0.013 |
| GGAGACCUUACUAUACAAGGAUGAUGGAGA [g13:g22:cont:t1A] | 0.000257 ± 0.011 |
| GGAGACCUAUGAUAUGUACCUUACUACCUCA | 0.000512 ± 0.0086 |
| GGAGACCUAUGAUUACAAGCUACUACCUCA | 0.00109 ± 0.0053 |
| GGAGACCUAUGAUAUCAACCCUACUACCUCA | 0.000482 ± 0.009 |
| GGAGACCUAUCUAUACAAGCAACUACCUCA | 0.0018 ± 0.005 |
| GGAGACGAUACUAUACAACCGUACUACCUCA | 0.00284 ± 0.0035 |
| GGAGACCUAACUAUAGAACCUACUACCUGA | 0.000927 ± 0.0065 |
| GGAGACCUAACUUAUCAACCUACUACCUCA | 0.00155 ± 0.0068 |
| GGAGACCAUACUAUACAACCUACUACGUGA | 0.0051 ± 0.0028 |
| GGAGACCAUAGUAAACAACCUACUACCUCA | 0.00482 ± 0.0034 |
| GGAGUGGAUACUAUACAACCUACUUGGUCA | 0.00319 ± 0.0033 |
| GGAGACCUAUGAAUACAACCUACUACCAGA | 0.000641 ± 0.0078 |
| GGAGACCUUCCUAUACAACCUACUACCUCA | 0.00433 ± 0.0054 |
| GGAGAGGAUACUAUACAACCUACUACGUCA | 0.00636 ± 0.0029 |
| GGAGACCUAACUAUACAACCUACUACCAUCA | 0.00258 ± 0.0034 |
